Assay results as given in PubChem BioAssay AID2685 (National Center for Advancing Translational Sciences (NCATS), 2010).
The list shows a part of the results. Further columns of the screen follow, without active or inactive calls. Most of these compounds were active or inconclusive in the main read-out, so they are no random draw. Potencies come from curve fits of mixed quality, noted in brackets.

Assay: qHTS Assay for Lipid Storage Modulators in Drosophila S3 Cells;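 on cell number change: cells counted by Cell Tracker Red CMTPX staining in the red channel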
Conditions: BODIPY lipid droplet fluorescence, 18-24 h; for cell number change: measured here: cell count max response, cells fed with added oleic acid
How it was run: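 Drosophila S3 cells loaded with oleic acid (400 uM, as added) and compounds at several concentrations; lipid droplets imaged by 488-nm laser-scanning cytometry, 500–530 nm intensity and object ratio to cell channel. Percent activity normalized to 20 uM Triacsin C.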

[1] = measured here: lipid fluorescence (Fed channel) AC50, cells fed with added oleic acid
[2] = measured here: cell number channel AC50, cells fed with added oleic acid

SMILES	AC50 [1]	cell number change	AC50 [2]
COc1cccc(NC(=O)CSc2nc(O)c(C)c(=O)n2-c2ccc(C)cc2)c1	29.1 µM [rising, single point]	–	–
COCCCNC(=O)Cn1cc(C(C)=O)c2ccccc21	29.1 µM [rising, single point]	22.7%	–
CCOc1cccc2sc(NC(=O)c3ccc(Br)s3)nc12	9.2 µM [falling, partial curve, poor fit]	-12.4%	–
Cc1ccccc1OCc1nnc(SCC(=O)Nc2ccc3c(c2)oc2ccccc23)n1C	–	-117%	9.2 µM [falling, partial curve]
CC(C)NC(=O)C(c1ccc(F)cc1)N(C(=O)CCC(=O)Nc1ccccn1)c1ccccc1F (stereo not drawn)	–	-11.1%	–
CCN(CC(=O)Nc1ccc(NC(C)=O)cc1)C(=O)/C=C/c1c(C)nn(-c2ccc(F)cc2)c1Cl	–	–	0.184 µM [falling, full curve, poor fit]
Cc1cc(C)c(C)c(OCCCn2ccnc2)c1	18.4 µM [rising, partial curve]	198%	9.2 µM [rising, partial curve]
COc1ccc(S(=O)(=O)N2CCN(C)CC2)cc1NC(=O)c1ccccc1C	–	14.1%	–
O=c1cc(/C=C/c2ccccc2)oc2c1ccc1ccccc12	25.9 µM [falling, single point]	-11.5%	–
CCCCc1nc2cc(C(=O)N3CCN(c4cnccn4)CC3)ccc2o1	29.1 µM [rising, single point]	9.25%	–
O=C(O)Cn1cnc2scc(-c3ccccc3)c2c1=O	25.9 µM [rising, single point]	-11.8%	–
C=C(NC(=O)C(=C)NC(=O)c1csc(C2=NC3c4csc(n4)C4NC(=O)c5csc(n5)C([C@@](C)(O)C(C)O)NC(=O)C5CSC(=N5)/C(=C\C)NC(=O)C(C(C)O)NC(=O)c5csc(n5)[C@]3(CC2)NC(=O)C(C)NC(=O)C(=C)NC(=O)C(C)NC(=O)C(C(C)CC)NC2C=Cc3c(C(C)O)cc(nc3C2O)C(=O)OC4C)n1)C(N)=O (stereo partly drawn)	2.06 µM [falling, single point]	14.2%	–
Cc1ccc(F)cc1NC(=O)CN1C(=O)NC2(CCCc3ccccc32)C1=O (stereo not drawn)	–	23.7%	1.16 µM [rising, full curve, poor fit]
Cc1cccc(NC(=O)CC2SC(=NC3CCCCC3)NC2=O)c1 (stereo not drawn)	–	2.3%	–
O=C(NNc1ccc(Cl)cc1)c1cccs1	–	14.9%	0.58 µM [falling, single point]
COc1ccc2c(=O)c(-c3ccccc3)c(C)oc2c1	–	46.7%	2.59 µM [rising, partial curve]
O=c1[nH]c2ccc(NCc3ccccc3OCc3ccc(Cl)cc3)cc2[nH]1	–	-53%	25.9 µM [falling, single point]
COC(=O)C(C)NC(=O)C12CC3CC(C1)CC(c1ccc(C)cc1)(C3)C2 (stereo not drawn)	–	-20.6%	–
COc1cccc(-n2nnc3c(=O)n(CC(=O)Nc4ccc(C)cc4)cnc32)c1	6.51 µM [falling, single point]	-38.1%	6.51 µM [falling, single point]
COc1ccc(OC)c(/C=N\NC(=O)c2c(C)nc3cc(C)ccn23)c1	–	16.1%	–

SMILES	AC50 [1]	cell number change	AC50 [2]
C/C(=N\NC(N)=S)c1ccncc1	7.31 µM [rising, partial curve, poor fit]	13.7%	–
COc1cccc2cc(C(=O)NCc3ccc(Cl)cc3)c(=O)oc12	–	-19%	–
CNS(=O)(=O)c1ccc(C(=O)NCC(=O)NCCc2ccc3c(c2)OCCO3)cc1	0.116 µM [falling, partial curve, poor fit]	-0.275%	–
Cc1nn(-c2ccccc2)c(C)c1/C=N/NC(=O)c1ccccc1O	14.6 µM [rising, single point]	23.4%	4.11 µM [rising, full curve, poor fit]
O=C(c1cccs1)N1CCN(c2nc3c(F)cc(F)cc3s2)CC1	–	-20.8%	–
O=C(CSCc1ccc(F)cc1)NC1CCCC1	3.66 µM [falling, full curve]	-38.4%	4.11 µM [falling, full curve]
Cc1ccc(NC(=O)CCc2nc3ccccc3c(=O)[nH]2)cc1S(=O)(=O)N1CCOCC1	5.8 µM [falling, full curve, poor fit]	-18%	–
NS(=O)(=O)c1ccc(NNC(=O)c2ccccc2)cc1	6.51 µM [falling, single point]	-15.5%	–
O=C(N/N=C/c1cccc(OC(=O)c2ccc3c(c2)OCO3)c1)c1cncc(Br)c1	4.61 µM [rising, partial curve]	–	–
CSc1nsc(/C=C/Nc2ccc(F)cc2F)c1C#N	6.51 µM [rising, single point]	19.5%	–
CCc1c(C)sc(NC(=O)OC)c1C(=O)N1CCOCC1	29.1 µM [falling, single point]	-17%	–
CC1(C)Cc2c(c(-c3ccccc3Cl)[nH]c(=O)c2C#N)CO1	29.1 µM [falling, single point]	–	6.51 µM [falling, single point]
O=C(Nc1ccc(F)cc1F)N1CCCN(c2ccc([N+](=O)[O-])cn2)CC1	18.4 µM [falling, single point]	-41.2%	29.1 µM [falling, single point]
CCOc1ccccc1NC(=O)Nc1cccc(C(C)=O)c1	0.651 µM [rising, partial curve, poor fit]	0.971%	1.64 µM [rising, single point]
O=C(Nc1cnn(C23CC4CC(CC(C4)C2)C3)c1)c1cnn2cccnc12	1.03 µM [rising, single point]	-44.8%	13 µM [falling, partial curve]
Cc1ccccc1NC(=O)c1ccc(C)c(S(=O)(=O)N2CCN(C)CC2)c1	29.1 µM [falling, single point]	1.37%	–
Cc1cnc(NC(=O)CSc2nnc(-c3ccncc3)n2C2CCCCC2)s1	10.3 µM [rising, partial curve]	0.475%	–
COc1ccccc1Cn1c(SCC(N)=O)nc2c(oc3ccccc32)c1=O	0.164 µM [rising, full curve, poor fit]	9.12%	–
CCCn1c(C(O)c2cc(OC)c(OC)c(OC)c2)nc2ccccc21 (stereo not drawn)	29.1 µM [falling, single point]	-47.2%	7.31 µM [falling, partial curve]
O=C(CSc1nc2ccccc2[nH]1)Nc1ccc(N2CCOCC2)cc1	–	-1.74%	–

Fetched by structure from the entries so far, five records:
SMILES	AC50 [1]	cell number change	AC50 [2]
CCc1c(C)sc(NC(=O)OC)c1C(=O)N1CCOCC1	29.1 µM [falling, single point]	-17%	–
Cc1cnc(NC(=O)CSc2nnc(-c3ccncc3)n2C2CCCCC2)s1	10.3 µM [rising, partial curve]	0.475%	–
O=C(Nc1ccc(F)cc1F)N1CCCN(c2ccc([N+](=O)[O-])cn2)CC1	18.4 µM [falling, single point]	-41.2%	29.1 µM [falling, single point]
CC1(C)Cc2c(c(-c3ccccc3Cl)[nH]c(=O)c2C#N)CO1	29.1 µM [falling, single point]	–	6.51 µM [falling, single point]
O=C(c1cccs1)N1CCN(c2nc3c(F)cc(F)cc3s2)CC1	–	-20.8%	–

The results go on:

SMILES	AC50 [1]	cell number change	AC50 [2]
CC1CCC(NC(=O)c2cc(Cl)nc3ccccc23)CC1 (stereo not drawn)	0.092 µM [rising, full curve, poor fit]	-10.6%	–
CCc1ccc(NC(=O)C2CCN(C(=O)N3CCOc4ccccc43)CC2)cc1	–	2.88%	–
Cc1cccc(C2CC(c3ccc(F)cc3)Nc3nc(N)nn32)c1 (stereo not drawn)	5.8 µM [rising, full curve, poor fit]	–	–
O=S(=O)(NC1CCCCC1)c1ccc(Br)s1	29.1 µM [rising, partial curve, poor fit]	5.04%	–
Fc1cccc(CN2CCN(C(=S)NCCc3ccccc3)CC2)c1	–	42.9%	29.1 µM [rising, single point]
CCOC(=O)c1ccc[n+](CC(=O)Nc2ccccc2OC(F)F)c1	29.1 µM [rising, partial curve, poor fit]	–	–
Cc1nnc(SCC(=O)N/N=C/c2ccc(-c3ccc(C)c(Cl)c3)o2)s1	–	-33.2%	29.1 µM [falling, single point]
COC(=O)[C@H](CC(C)C)NC(=O)Nc1ccc2c(c1)OCCO2	18.4 µM [falling, partial curve]	-21.7%	0.13 µM [falling, full curve, poor fit]
Cc1nc2ccc(S(=O)(=O)Nc3cccc(-c4nc5cccnc5s4)c3C)cc2s1	29.1 µM [falling, single point]	-34.1%	20.6 µM [falling, single point]
CN(Cc1ccccc1)c1nc(N)nc(Cl)c1C=O	2.06 µM [falling, partial curve, poor fit]	-0.782%	–
CN(Cc1ccccc1)S(=O)(=O)c1ccc(NC(=S)NC(=O)C2CCCCC2)cc1	25.9 µM [falling, single point]	-16.1%	–
COC(=O)c1ccc(CSc2nc3ccccc3c(=O)n2CC(C)C)o1	0.146 µM [rising, full curve, poor fit]	-43.8%	–
CN(c1ccc([N+](=O)[O-])cc1C(=O)Nc1ccccc1)C1CCCCC1	–	36.8%	–
O=C(O)Cc1c(C(=O)O)nnn1-c1ccc(Cl)cc1Cl	29.1 µM [rising, single point]	92.7%	–
CC(=O)NCCc1nc2cc(NC(=O)COc3cccc(C)c3)ccc2n1C	6.51 µM [falling, single point]	–	–
Cc1ccc(NS(=O)(=O)c2ccc3c(c2)NC(=O)CCS3)cc1C	6.51 µM [falling, single point]	-7.55%	–
CN1CCN(c2nc(-c3cc4ccccc4o3)cs2)CC1	3.26 µM [rising, partial curve, poor fit]	–	–
N#CC(C#N)=C1C=CC=CN1/C(=C\c1ccco1)C(=O)c1ccccc1	5.8 µM [falling, full curve]	-39.6%	7.31 µM [falling, partial curve]
COC(=O)c1sc(=S)n(Cc2ccccc2)c1C	4.61 µM [falling, full curve]	-30.6%	7.31 µM [falling, partial curve]
